Source: PubChem BioAssay AID248 (DTP/NCI, 2004)
The list shows only some results of the screen, not a fair sample: it gathers tests that were run many times, whatever their T/C, doses with no T/C, and many T/C values between a quarter and a half above the control. Further doses and runs are listed elsewhere. T/C: endpoint of the treated group in % of that of the vehicle group. Some entries give survivors of the animals treated and no T/C: the source files T/C as zero there, which appears to mark a toxic dose or a test without result, not a measured value. Some survivor counts are full or nearly so, which does not show that the dose was tolerated: survival well below the control is almost never listed, so the zero probably covers shortened survival too. Survivors were counted at the toxicity check, usually on the fifth day, unless a day is given; later deaths do not show. Schedule codes are those of the source, taken here to give the interval after Q, in days (D) or hours (H), and the number of doses after X. Some schedules carry Z or #; the key to these is not given. Where survival is the endpoint, this PubChem deposit counts one and a half times the control or more as active, and values a quarter to a half above the control carry no call in these data; other NCI protocols may use other cut-offs. Some T/C values are followed by the survivors on the day toxicity was checked, most often the fifth; where none is given, no animal had died by that day.

Tested on: L1210 leukemia ip in BDF1 mice, survival T/C
Experiment: NCI In Vivo Anticancer Drug Screen. Data for tumor model L1210 Leukemia (intraperitoneal) in B6D2F1 (BDF1) mice
Settings: T/C endpoint: mean survival time, higher T/C = longer survival
[1] = dose: 200.0 mg/kg/injection, schedule: Q04DX003 (ip), vehicle: Klucel (hydroxypropylcellulose) (HPC)
[2] = dose: 400.0 mg/kg/injection, schedule: Q04DX003 (ip), vehicle: Klucel (hydroxypropylcellulose) (HPC)
[3] = dose: 200.0 mg/kg/injection, schedule: Q04DX003 (ip), vehicle: saline
[4] = dose: 400.0 mg/kg/injection, schedule: Q01DX001 (ip), vehicle: saline
[5] = dose: 200.0 mg/kg/injection, schedule: Q01DX001 (ip), vehicle: carboxymethylcellulose (CMC)
[6] = dose: 400.0 mg/kg/injection, schedule: Q01DX001 (ip), vehicle: carboxymethylcellulose (CMC)
[7] = dose: 400.0 mg/kg/injection, schedule: Q01DX009 (ip), vehicle: saline
[8] = dose: 200.0 mg/kg/injection, schedule: Q01DX009 (ip), vehicle: Klucel (hydroxypropylcellulose) (HPC)
[9] = dose: 400.0 mg/kg/injection, schedule: Q01DX009 (ip), vehicle: Klucel (hydroxypropylcellulose) (HPC)
[10] = dose: 100.0 mg/kg/injection, schedule: Q01DX009 (ip), vehicle: saline with Tween-80
[11] = dose: 200.0 mg/kg/injection, schedule: Q01DX009 (ip), vehicle: saline with Tween-80
[12] = dose: 100.0 mg/kg/injection, schedule: Q04DX003 (ip), vehicle: saline
[13] = dose: 400.0 mg/kg/injection, schedule: Q04DX003 (ip), vehicle: saline
[14] = dose: 400.0 mg/kg/injection, schedule: Q01DX009 (ip), vehicle: saline with Tween-80
[15] = dose: 200.0 mg/kg/injection, schedule: Q01DX001 (ip), vehicle: saline

**Q.** With `CC(C)(C)COC(=O)CCN1CC1` as the compound, how does the survivor count (dose: 80.0 mg/kg/injection, schedule: Q01DX009 (ip), vehicle: Klucel (hydroxypropylcellulose) (HPC)) read?
**A.** 6 of 6

**Q.** And the survivor count [1]?
**A.** 1 of 6

**Q.** What about the survivor count [2] of the same compound?
**A.** 0 of 6

**Q.** For `CN1CCC2=C(C1)C(c1ccccc1)c1ccccc12` (stereo unspecified), which survivor count [3] is on record?
**A.** 1 of 6

**Q.** For `CCCCOc1c(Cl)c(Cl)c(O)c(Cl)c1Cl`, which survivor count (dose: 200.0 mg/kg/injection, schedule: Q01DX009 (ip), vehicle: acetone) is on record?
**A.** 2 of 6

**Q.** And the survivor count [4]?
**A.** 2 of 6

**Q.** For `O=c1cc(CCl)[nH]nc1CCl`, which T/C (dose: 14.5 mg/kg/injection, schedule: Q04DX003 (ip), vehicle: saline with Tween-80) is on record?
**A.** 145 % of control

**Q.** And the T/C (dose: 33.0 mg/kg/injection, schedule: Q04DX003 (ip), vehicle: saline with Tween-80)?
**A.** 130 % of control

**Q.** What about the T/C (dose: 50.0 mg/kg/injection, schedule: Q04DX003 (ip), vehicle: saline with Tween-80, evaluated on day 20) of the same compound?
**A.** 132 % of control

**Q.** What about the T/C (dose: 50.0 mg/kg/injection, schedule: Q04DX003 (ip), vehicle: saline with Tween-80, evaluated on day 30) of the same compound?
**A.** 134 % of control

**Q.** And the survivor count (dose: 100.0 mg/kg/injection, schedule: Q04DX003 (ip), vehicle: saline with Tween-80)?
**A.** 6 of 6

**Q.** And the survivor count (dose: 200.0 mg/kg/injection, schedule: Q04DX003 (ip), vehicle: saline with Tween-80)?
**A.** 0 of 5

**Q.** And the survivor count (dose: 400.0 mg/kg/injection, schedule: Q04DX003 (ip), vehicle: saline with Tween-80)?
**A.** 1 of 6

**Q.** `CCCCCCCCCCCC[As](=O)(O)O` was tested. Which survivor count [5] did it give?
**A.** 2 of 4

**Q.** And the survivor count [6]?
**A.** 0 of 4

**Q.** How did the survivor count (dose: 50.0 mg/kg/injection, schedule: Q01DX009 (ip), vehicle: saline) turn out when `CCN(CC)Cc1ccc(N)cc1` was run?
**A.** 6 of 6

**Q.** And the survivor count (dose: 100.0 mg/kg/injection, schedule: Q01DX009 (ip), vehicle: saline)?
**A.** 1 of 6

**Q.** And the survivor count (dose: 200.0 mg/kg/injection, schedule: Q01DX009 (ip), vehicle: saline)?
**A.** 0 of 6

**Q.** And the survivor count [7]?
**A.** 0 of 6

**Q.** Which results are given for `Cc1cccc(N2C(=O)C3C(C2=O)C2(Cl)C(Cl)=C(Cl)C3(Cl)C2(Cl)Cl)c1C` (stereo unspecified)?
**A.** survivor count (dose: 100.0 mg/kg/injection, schedule: Q01DX009 (ip), vehicle: Klucel (hydroxypropylcellulose) (HPC)): 3 of 6; survivor count [8]: 0 of 6; survivor count [9]: 0 of 6

**Q.** Which survivor count [10] does the source give for `CNC(=O)NNC(=O)CNC(=O)Nc1cccc([N+](=O)[O-])c1` here?
**A.** 1 of 6

**Q.** With `COc1ccc2cc[n+](C)c(Cc3ccc(OC)c(Oc4ccc(Cc5c(OC)ccc6cc[n+](C)cc56)cc4)c3)c2c1` as the compound, how does the survivor count (dose: 100.0 mg/kg/injection, schedule: Q04DX003 (ip), vehicle: other) read?
**A.** 0 of 3

**Q.** What about the survivor count (dose: 200.0 mg/kg/injection, schedule: Q04DX003 (ip), vehicle: other) of the same compound?
**A.** 0 of 3

**Q.** And the survivor count (dose: 400.0 mg/kg/injection, schedule: Q04DX003 (ip), vehicle: other)?
**A.** 0 of 3

**Q.** What does the source list for `N#CC(C#N)C1c2ccccc2Nc2ccccc21`?
**A.** survivor count [10]: 0 of 3; survivor count [11]: 0 of 3

**Q.** How did the survivor count [12] turn out when `CC[N+](CC)(CC)CCCC[P+](CC)(CC)CC` was run?
**A.** 2 of 6

**Q.** What about the survivor count [3] of the same compound?
**A.** 0 of 6

**Q.** And the survivor count [13]?
**A.** 0 of 6

**Q.** For `N#Cc1nc2nc(C(F)(F)F)[nH]c2nc1C#N`, which survivor count (dose: 50.0 mg/kg/injection, schedule: Q04DX003 (ip), vehicle: saline with Tween-80) is on record?
**A.** 5 of 6

**Q.** What about the survivor count [10] of the same compound?
**A.** 0 of 6

**Q.** What about the survivor count [11] of the same compound?
**A.** 0 of 6

**Q.** And the survivor count [14]?
**A.** 0 of 6

**Q.** For `C[Si](C)(N1CC1)N1CC1`, which survivor count (dose: 100.0 mg/kg/injection, schedule: Q01DX001 (ip), vehicle: carboxymethylcellulose (CMC)) is on record?
**A.** 0 of 4

**Q.** And the survivor count [5]?
**A.** 0 of 4

**Q.** What about the survivor count [6] of the same compound?
**A.** 0 of 4

**Q.** How did the survivor count [15] turn out when `CC(C)(NC(=O)NCCCl)c1ccccc1` was run?
**A.** 3 of 6

**Q.** And the survivor count [4]?
**A.** 0 of 6

**Q.** Which survivor count [7] does the source give for `CCC(=O)OCCOc1ccc(C(C)(C)C)cc1` here?
**A.** 0 of 3

**Q.** And the survivor count (dose: 400.0 mg/kg/injection, schedule: Q04DX002 (ip), vehicle: saline)?
**A.** 2 of 3

**Q.** With `Cc1ccc2cc(O)ccc2c1` as the compound, how does the survivor count (dose: 400.0 mg/kg/injection, schedule: Q04DX003 (ip), vehicle: acetone) read?
**A.** 0 of 6

**Q.** How did the survivor count [10] turn out when `C=Cc1c(C)c2cc3[nH]c(cc4nc(cc5nc(cc1[nH]2)C(C)=C5CCC(=O)O)C(CCC(=O)O)=C4C)c(C)c3C=C` was run?
**A.** 6 of 6

**Q.** And the survivor count [11]?
**A.** 6 of 6

**Q.** For `CN1CCC(SC(=O)C(O)(c2ccccc2)c2ccccc2)CC1`, which survivor count (dose: 300.0 mg/kg/injection, schedule: Q01DX001 (ip), vehicle: saline) is on record?
**A.** 1 of 6

**Q.** With `CCCCCCCCCCCCCCCCCN` as the compound, how does the survivor count (dose: 50.0 mg/kg/injection, schedule: Q01DX009 (ip), vehicle: Klucel (hydroxypropylcellulose) (HPC)) read?
**A.** 5 of 6

**Q.** What about the survivor count (dose: 100.0 mg/kg/injection, schedule: Q04DX003 (ip), vehicle: Klucel (hydroxypropylcellulose) (HPC)) of the same compound?
**A.** 6 of 6

**Q.** What about the survivor count [1] of the same compound?
**A.** 4 of 6

**Q.** And the survivor count [2]?
**A.** 0 of 6

**Q.** What does the source list for `CN=C(NCCCOC)c1ccc(NC(=O)c2ccc(C(=O)Nc3ccc(C(=NC)NCCCOC)cc3)cc2)cc1`?
**A.** T/C (dose: 6.6 mg/kg/injection, schedule: Q01DX Z (ip), vehicle: carboxymethylcellulose (CMC)): 136 % of control; T/C (dose: 10.0 mg/kg/injection, schedule: Q01DX Z (ip), vehicle: saline): 144 % of control; T/C (dose: 15.0 mg/kg/injection, schedule: Q01DX Z (ip), vehicle: saline): 132 % of control; T/C (dose: 22.5 mg/kg/injection, schedule: Q01DX Z (ip), vehicle: carboxymethylcellulose (CMC)): 129 % of control [5 of 6 alive]; survivor count (dose: 22.5 mg/kg/injection, schedule: Q01DX Z (ip), vehicle: saline): 1 of 6; survivor count (dose: 30.0 mg/kg/injection, schedule: Q01DX Z (ip), vehicle: saline): 1 of 6; survivor count (dose: 33.7 mg/kg/injection, schedule: Q01DX Z (ip), vehicle: carboxymethylcellulose (CMC)): 2 of 6; survivor count (dose: 35.0 mg/kg/injection, schedule: Q01DX Z (ip), vehicle: saline): 0 of 6; survivor count (dose: 55.0 mg/kg/injection, schedule: Q01DX Z (ip), vehicle: saline): 0 of 6; survivor count (dose: 60.0 mg/kg/injection, schedule: Q01DX Z (ip), vehicle: saline): 0 of 6; survivor count (dose: 120.0 mg/kg/injection, schedule: Q01DX Z (ip), vehicle: saline): 0 of 6; survivor count (dose: 960.0 mg/kg/injection, schedule: Q01DX Z (oral), vehicle: saline): 1 of 6

**Q.** What does the source list for `O=C(C[n+]1cccc(CO)c1)c1ccccc1`?
**A.** survivor count [12]: 0 of 6; survivor count [3]: 0 of 6; survivor count [13]: 0 of 6

**Q.** For `Nc1cnccc1N1CCN(c2ccc(Cl)c(Cl)c2)CC1`, which survivor count (dose: 200.0 mg/kg/injection, schedule: Q01DX009 (ip), vehicle: gum acacia) is on record?
**A.** 6 of 6

**Q.** And the survivor count (dose: 400.0 mg/kg/injection, schedule: Q01DX009 (ip), vehicle: gum acacia)?
**A.** 0 of 6

**Q.** With `O=C(NCc1ccco1)c1cccc(F)c1` as the compound, how does the survivor count [8] read?
**A.** 4 of 6

**Q.** What about the survivor count [9] of the same compound?
**A.** 0 of 6

**Q.** Which T/C (dose: 200.0 mg/kg/injection, schedule: Q01DX001 (ip), vehicle: saline with Tween-80) does the source give for `COc1cccc2c1C(=O)c1c(O)c3c(c(O)c1C2=O)CC(O)(C(C)=O)CC3OC1CC2NC(=O)OC2C(C)O1` (stereo unspecified) here?
**A.** 148 % of control

**Q.** What about the T/C (dose: 400.0 mg/kg/injection, schedule: Q01DX001 (ip), vehicle: saline with Tween-80) of the same compound?
**A.** 132 % of control

**Q.** `NC1CC2(CCC1=O)c1ccccc1-c1ccccc12` (stereo unspecified) was tested. Which survivor count [15] did it give?
**A.** 3 of 4

**Q.** For `COC1(OC)C2CCC1C(O)C2` (stereo unspecified), which survivor count [7] is on record?
**A.** 3 of 6

**Q.** With `CC1(C)N=C(N)N=C(N)N1c1cccc(CC(C(=O)Nc2ccc(S(=O)(=O)F)cc2)c2ccccc2)c1` (stereo unspecified) as the compound, how does the survivor count (dose: 50.0 mg/kg/injection, schedule: Q01DX001 (ip), vehicle: Klucel (hydroxypropylcellulose) (HPC)) read?
**A.** 6 of 6

**Q.** How did the survivor count [11] turn out when `CC(C)(C)P(=O)(O)O` was run?
**A.** 3 of 6

**Q.** And the survivor count [14]?
**A.** 1 of 6
